Test results published in the supplement of paper PMC10849652.
This is one part of the list.

Chains of the proteins cited; added tags and fusions are not shown. Lines headed by an entry give the natural chain unless they say otherwise; changes in a name come on top.
UniProt Q9HB40: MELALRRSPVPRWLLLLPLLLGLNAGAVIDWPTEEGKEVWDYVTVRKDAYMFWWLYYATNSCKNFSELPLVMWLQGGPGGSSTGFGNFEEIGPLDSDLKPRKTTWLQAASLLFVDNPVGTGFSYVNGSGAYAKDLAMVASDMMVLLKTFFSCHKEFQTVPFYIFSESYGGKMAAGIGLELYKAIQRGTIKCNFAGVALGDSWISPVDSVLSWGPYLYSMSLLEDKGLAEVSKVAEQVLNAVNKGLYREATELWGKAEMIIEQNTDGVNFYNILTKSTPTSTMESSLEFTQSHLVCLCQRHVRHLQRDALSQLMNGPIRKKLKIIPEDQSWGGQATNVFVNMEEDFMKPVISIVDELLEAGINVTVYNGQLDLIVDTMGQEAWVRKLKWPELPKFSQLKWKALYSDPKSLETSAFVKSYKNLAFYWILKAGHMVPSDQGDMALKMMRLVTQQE
UniProt Q7L099: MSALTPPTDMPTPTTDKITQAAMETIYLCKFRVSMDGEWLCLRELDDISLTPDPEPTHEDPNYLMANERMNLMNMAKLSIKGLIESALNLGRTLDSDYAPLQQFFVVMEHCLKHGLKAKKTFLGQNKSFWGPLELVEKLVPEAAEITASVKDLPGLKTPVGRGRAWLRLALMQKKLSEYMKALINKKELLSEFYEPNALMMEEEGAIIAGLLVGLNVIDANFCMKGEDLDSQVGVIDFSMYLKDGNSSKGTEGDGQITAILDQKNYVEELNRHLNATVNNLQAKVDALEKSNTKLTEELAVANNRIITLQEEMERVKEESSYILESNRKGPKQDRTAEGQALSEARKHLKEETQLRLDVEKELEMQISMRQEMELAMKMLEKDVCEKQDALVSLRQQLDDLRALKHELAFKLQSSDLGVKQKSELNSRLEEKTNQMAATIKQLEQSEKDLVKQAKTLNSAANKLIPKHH
UniProt Q8WXD2: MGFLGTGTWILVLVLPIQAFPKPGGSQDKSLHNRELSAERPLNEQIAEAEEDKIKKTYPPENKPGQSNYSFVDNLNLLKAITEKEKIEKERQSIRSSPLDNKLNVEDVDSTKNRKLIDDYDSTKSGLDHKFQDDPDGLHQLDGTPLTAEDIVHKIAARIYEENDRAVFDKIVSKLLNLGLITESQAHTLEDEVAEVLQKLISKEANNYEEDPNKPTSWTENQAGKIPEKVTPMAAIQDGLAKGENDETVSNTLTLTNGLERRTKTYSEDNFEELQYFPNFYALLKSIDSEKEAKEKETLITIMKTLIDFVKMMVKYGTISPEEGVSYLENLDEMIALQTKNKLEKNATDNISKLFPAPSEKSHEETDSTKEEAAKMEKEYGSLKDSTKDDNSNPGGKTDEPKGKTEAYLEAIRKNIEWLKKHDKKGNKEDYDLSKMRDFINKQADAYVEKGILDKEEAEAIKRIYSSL
UniProt O00767: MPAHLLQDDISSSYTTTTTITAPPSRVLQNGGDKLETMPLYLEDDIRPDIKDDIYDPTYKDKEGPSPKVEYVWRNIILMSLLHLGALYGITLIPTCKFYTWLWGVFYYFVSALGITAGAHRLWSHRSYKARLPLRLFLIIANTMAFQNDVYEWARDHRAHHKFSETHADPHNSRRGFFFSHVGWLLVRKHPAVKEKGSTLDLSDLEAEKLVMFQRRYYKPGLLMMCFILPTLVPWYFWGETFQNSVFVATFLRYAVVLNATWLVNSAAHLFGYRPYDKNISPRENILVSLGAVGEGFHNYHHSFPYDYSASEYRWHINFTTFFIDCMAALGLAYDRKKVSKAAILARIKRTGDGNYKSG
UniProt O95486: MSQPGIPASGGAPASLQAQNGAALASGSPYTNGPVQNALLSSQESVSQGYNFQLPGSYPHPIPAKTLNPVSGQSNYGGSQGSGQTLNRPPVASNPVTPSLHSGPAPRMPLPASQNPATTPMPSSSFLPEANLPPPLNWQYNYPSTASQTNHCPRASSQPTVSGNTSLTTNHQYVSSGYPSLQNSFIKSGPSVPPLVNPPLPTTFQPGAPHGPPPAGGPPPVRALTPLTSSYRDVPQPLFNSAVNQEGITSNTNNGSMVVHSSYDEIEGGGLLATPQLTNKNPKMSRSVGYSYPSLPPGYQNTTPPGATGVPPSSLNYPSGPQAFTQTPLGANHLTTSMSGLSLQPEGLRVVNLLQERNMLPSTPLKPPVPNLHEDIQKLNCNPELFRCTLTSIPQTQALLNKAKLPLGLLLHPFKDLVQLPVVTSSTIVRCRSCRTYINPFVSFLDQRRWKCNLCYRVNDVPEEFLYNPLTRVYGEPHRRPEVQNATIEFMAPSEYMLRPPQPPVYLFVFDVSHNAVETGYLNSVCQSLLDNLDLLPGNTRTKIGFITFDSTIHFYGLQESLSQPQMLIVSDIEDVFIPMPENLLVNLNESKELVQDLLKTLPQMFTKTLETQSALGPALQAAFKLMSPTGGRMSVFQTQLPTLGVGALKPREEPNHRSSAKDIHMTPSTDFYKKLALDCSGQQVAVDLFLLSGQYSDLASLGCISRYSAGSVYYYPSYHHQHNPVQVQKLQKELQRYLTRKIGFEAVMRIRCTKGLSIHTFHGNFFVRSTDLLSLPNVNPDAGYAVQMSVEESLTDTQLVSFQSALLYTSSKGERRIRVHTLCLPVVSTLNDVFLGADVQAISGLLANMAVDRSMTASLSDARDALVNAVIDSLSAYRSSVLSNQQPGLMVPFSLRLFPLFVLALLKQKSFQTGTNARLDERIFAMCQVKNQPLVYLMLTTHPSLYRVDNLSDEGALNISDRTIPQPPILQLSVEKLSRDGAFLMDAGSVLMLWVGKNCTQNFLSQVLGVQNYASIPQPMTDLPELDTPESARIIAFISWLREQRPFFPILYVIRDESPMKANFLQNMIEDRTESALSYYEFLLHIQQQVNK
UniProt Q96T51: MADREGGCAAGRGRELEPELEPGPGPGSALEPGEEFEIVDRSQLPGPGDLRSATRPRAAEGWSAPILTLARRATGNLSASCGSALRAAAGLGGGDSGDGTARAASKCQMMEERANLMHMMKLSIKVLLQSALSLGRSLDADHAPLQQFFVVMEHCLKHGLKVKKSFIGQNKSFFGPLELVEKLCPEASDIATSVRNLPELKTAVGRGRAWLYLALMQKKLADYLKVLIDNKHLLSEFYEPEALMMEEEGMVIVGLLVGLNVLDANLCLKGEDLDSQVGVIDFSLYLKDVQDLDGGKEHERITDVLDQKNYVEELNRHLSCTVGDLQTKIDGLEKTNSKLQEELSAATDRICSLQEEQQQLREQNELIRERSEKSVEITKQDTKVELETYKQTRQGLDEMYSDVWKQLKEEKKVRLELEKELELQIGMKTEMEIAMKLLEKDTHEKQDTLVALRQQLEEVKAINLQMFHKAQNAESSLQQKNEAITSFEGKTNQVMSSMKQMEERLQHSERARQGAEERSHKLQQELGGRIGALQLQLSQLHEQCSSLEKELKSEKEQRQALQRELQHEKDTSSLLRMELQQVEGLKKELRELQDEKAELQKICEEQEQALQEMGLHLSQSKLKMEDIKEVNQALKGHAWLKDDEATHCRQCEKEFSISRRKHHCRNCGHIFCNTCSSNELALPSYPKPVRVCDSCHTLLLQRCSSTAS
UniProt Q15436: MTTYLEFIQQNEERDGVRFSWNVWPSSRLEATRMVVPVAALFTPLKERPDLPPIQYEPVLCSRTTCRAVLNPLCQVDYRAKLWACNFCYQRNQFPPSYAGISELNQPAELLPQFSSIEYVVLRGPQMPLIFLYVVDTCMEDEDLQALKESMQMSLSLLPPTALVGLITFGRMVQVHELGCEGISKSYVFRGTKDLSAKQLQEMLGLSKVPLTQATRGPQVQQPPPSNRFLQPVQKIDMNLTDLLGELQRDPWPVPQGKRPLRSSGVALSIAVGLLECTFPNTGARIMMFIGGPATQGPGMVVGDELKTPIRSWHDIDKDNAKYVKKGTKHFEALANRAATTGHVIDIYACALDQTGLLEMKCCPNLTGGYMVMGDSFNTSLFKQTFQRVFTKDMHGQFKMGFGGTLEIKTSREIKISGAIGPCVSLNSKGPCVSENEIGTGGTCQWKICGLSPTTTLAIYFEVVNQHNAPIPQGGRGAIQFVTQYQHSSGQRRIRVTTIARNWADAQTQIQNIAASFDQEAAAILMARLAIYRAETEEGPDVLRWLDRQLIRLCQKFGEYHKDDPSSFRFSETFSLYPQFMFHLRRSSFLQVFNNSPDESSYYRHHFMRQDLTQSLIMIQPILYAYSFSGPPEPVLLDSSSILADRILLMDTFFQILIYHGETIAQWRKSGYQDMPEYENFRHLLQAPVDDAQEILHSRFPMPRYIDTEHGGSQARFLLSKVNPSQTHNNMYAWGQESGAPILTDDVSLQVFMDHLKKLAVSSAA
UniProt Q5VUM1: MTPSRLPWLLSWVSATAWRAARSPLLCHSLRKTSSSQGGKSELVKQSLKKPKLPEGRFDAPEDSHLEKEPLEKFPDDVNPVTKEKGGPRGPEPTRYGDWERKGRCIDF
UniProt Q9UPN6: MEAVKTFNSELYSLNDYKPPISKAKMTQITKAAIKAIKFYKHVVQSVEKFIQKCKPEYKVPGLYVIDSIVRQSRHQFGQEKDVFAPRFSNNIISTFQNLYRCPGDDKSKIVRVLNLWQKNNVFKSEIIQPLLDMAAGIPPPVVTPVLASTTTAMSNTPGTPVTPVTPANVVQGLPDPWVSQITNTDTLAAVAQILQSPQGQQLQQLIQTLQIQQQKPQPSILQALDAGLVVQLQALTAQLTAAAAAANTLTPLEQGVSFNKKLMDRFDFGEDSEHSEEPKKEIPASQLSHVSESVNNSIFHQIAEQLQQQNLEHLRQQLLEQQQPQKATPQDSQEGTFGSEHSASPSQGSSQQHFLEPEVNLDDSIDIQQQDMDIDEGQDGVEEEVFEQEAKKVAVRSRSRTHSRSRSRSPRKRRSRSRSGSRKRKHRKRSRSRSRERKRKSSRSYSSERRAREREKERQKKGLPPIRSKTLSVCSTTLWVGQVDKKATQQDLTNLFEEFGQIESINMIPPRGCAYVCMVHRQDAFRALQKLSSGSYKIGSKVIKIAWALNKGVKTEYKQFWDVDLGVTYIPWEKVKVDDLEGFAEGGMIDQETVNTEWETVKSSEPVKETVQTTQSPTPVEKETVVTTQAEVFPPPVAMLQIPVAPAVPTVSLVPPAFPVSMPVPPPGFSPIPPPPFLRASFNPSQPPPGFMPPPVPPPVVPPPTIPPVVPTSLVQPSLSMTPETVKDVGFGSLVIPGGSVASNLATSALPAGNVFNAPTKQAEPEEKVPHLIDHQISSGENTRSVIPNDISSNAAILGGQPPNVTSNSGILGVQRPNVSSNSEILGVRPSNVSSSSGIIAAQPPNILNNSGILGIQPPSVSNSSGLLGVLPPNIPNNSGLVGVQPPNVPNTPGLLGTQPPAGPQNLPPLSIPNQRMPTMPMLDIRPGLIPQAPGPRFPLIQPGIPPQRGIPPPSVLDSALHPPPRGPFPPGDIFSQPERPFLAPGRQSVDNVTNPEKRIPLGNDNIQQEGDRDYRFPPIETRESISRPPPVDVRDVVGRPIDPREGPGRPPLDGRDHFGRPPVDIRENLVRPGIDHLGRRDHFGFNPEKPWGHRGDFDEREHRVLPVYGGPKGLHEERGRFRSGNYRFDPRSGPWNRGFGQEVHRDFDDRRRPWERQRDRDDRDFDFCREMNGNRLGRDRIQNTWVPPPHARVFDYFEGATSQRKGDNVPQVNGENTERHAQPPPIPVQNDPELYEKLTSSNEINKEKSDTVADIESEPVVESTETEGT
UniProt O43819: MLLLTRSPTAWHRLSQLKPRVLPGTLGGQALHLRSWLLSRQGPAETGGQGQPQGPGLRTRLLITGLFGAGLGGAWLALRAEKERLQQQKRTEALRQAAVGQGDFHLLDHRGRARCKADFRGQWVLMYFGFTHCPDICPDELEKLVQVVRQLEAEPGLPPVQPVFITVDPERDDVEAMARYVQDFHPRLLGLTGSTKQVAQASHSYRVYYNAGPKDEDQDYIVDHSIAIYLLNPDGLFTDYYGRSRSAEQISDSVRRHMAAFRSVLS
UniProt Q15050: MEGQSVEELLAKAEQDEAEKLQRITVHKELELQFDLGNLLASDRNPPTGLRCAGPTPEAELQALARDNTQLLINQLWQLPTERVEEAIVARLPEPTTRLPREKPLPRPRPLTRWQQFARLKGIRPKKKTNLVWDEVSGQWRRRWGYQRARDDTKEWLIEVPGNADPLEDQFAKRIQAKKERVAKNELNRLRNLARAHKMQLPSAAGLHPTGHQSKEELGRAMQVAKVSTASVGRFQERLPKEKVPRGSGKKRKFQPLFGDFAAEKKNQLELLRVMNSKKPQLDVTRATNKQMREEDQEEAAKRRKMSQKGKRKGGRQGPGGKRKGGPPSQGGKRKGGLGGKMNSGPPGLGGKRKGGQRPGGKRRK
UniProt Q9NPB0: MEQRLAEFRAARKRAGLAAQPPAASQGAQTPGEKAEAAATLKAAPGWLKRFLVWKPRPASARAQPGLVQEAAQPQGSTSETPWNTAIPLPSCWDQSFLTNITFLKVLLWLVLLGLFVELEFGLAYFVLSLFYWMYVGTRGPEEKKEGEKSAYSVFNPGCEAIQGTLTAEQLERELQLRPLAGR

Assays:
Assay in all cases: log2 fold change, soluble protein after heating vs DMSO (PISA); higher = thermal stabilisation; K562 cells, 10 uM, 30 min; active = over 0.2 and 3.5 SD of the protein, either way, in both replicates (recomputed)
saracatinib = compound: CN1CCN(CCOc2cc(OC3CCOCC3)c3c(Nc4c(Cl)ccc5c4OCO5)ncnc3c2)CC1 [saracatinib]
Procedure, shortened: (§1)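 K562 cells at 2×10^6 cells/mL were exposed to 10 μM compound for 30 min, then aliquots were heated for 3 min across 48°C-58°C, pooled, and extracted in PBS containing 0.5% NP-40 at 4°C. The supernatant after 21,000xg for 90 min was taken as soluble protein and measured by TMTpro 16plex LC-MS/MS with channel sums equalised. Thermal stability is reported relative to control samples, with values from duplicates. Fold changes are given on a log2 scale.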

sotrastaurin = compound: CN1CCN(c2nc(C3=C(c4c[nH]c5ccccc45)C(=O)NC3=O)c3ccccc3n2)CC1 [sotrastaurin]
Procedure, shortened: as §1

Tubastatin A = compound: CN1CCc2c(c3ccccc3n2Cc2ccc(C(=O)NO)cc2)C1 [Tubastatin A]
Procedure, shortened: as §1

[1] = compound: CNC(=O)C1=CC=CC=C1NC2=NC(=NC=C2Cl)NC3=C(C=C(C=C3)N4CCOCC4)OC
Procedure, shortened: as §1

defactinib = compound: CNC(=O)c1ccc(Nc2ncc(C(F)(F)F)c(NCc3nccnc3N(C)S(C)(=O)=O)n2)cc1 [defactinib]
Procedure, shortened: as §1

rucaparib = compound: CNCc1ccc(-c2[nH]c3cc(F)cc4c3c2CCNC4=O)cc1 [rucaparib]
Procedure, shortened: as §1

[2] = compound: CNc1nc(-c2ccc3c(N)n[nH]c3c2)cc(N2C[C@@H](C(=O)NC3CCCCC3)CC[C@H]2C)n1
Procedure, shortened: as §1

encorafenib = compound: COC(=O)N[C@@H](C)CNc1nccc(-c2cn(C(C)C)nc2-c2cc(Cl)cc(NS(C)(=O)=O)c2F)n1 [encorafenib]
Procedure, shortened: as §1

[3] = compound: COC(=O)[C@H](CCSC)NC(=O)C1=C(C=C(C=C1)NC[C@H](CS)N)C2=CC=CC=C2
Procedure, shortened: as §1

alvocidib = compound: CN1CC[C@H](c2c(O)cc(O)c3c(=O)cc(-c4ccccc4Cl)oc23)[C@H](O)C1 [alvocidib]
Procedure, shortened: as §1

Measured: log2 fold change

SCPEP1 (UniProt Q9HB40)
inactive: saracatinib -0.029 | sotrastaurin 0.031 | Tubastatin A -0.012 | [1] 0.021 | defactinib 0.005 | rucaparib 0.064 | [2] -0.022 | encorafenib -0.025 | [3] -0.004

RUFY3 isoform 3 (UniProt Q7L099)
inactive: saracatinib -0.054 | sotrastaurin -0.036 | Tubastatin A 0 | [1] -0.029 | defactinib -0.028 | rucaparib 0.105 | [2] -0.255 | encorafenib -0.017 | [3] -0.059

SEC31A (UniProt O94979)
inactive: saracatinib -0.086 | sotrastaurin -0.084 | Tubastatin A 0.019 | [1] 0.043 | defactinib -0.036 | rucaparib 0.002 | [2] -0.015 | encorafenib 0.062 | [3] -0.03

SCG3 (UniProt Q8WXD2)
inactive: saracatinib 0.191 | sotrastaurin 0.038 | Tubastatin A 0.021 | [1] 0.091 | defactinib -0.163 | rucaparib 0.046 | [2] -0.113 | encorafenib -0.069 | [3] 0.062

RTN4IP1 (UniProt Q8WWV3)
inactive: saracatinib -0.264 | sotrastaurin 0.43 | [1] -0.066 | defactinib -0.157 | rucaparib -0.178 | [2] -0.069 | encorafenib 0.02 | [3] 0.007
active: Tubastatin A 0.611

RRP12 (UniProt Q5JTH9)
inactive: saracatinib -0.024 | sotrastaurin -0.118 | Tubastatin A 0.125 | [1] -0.057 | defactinib -0.006 | rucaparib 0.183 | [2] -0.005 | encorafenib 0.138 | [3] 0.076

RSRC2 (UniProt Q7L4I2)
inactive: saracatinib 0.015 | sotrastaurin 0.049 | Tubastatin A -0.055 | [1] -0.125 | defactinib -0.048 | rucaparib -0.004 | [2] -0.016 | encorafenib -0.005 | [3] 0.024

SDHB, A0A087WWT1
inactive: saracatinib -0.143 | sotrastaurin 0.088 | alvocidib 0.059 | [1] 0.053 | defactinib -0.002 | rucaparib 0.03 | [2] -0.228 | encorafenib -0.055 | [3] 0.013

SCAMP2 (UniProt H3BUB6)
inactive: saracatinib -0.149 | sotrastaurin 0.171 | Tubastatin A -0.056 | [1] -0.043 | defactinib 0.088 | rucaparib 0.072 | [2] -0.155 | encorafenib -0.311 | [3] 0.096

SCD (UniProt O00767)
inactive: saracatinib 0.066 | sotrastaurin 0.036 | Tubastatin A -0.234 | [1] 0.024 | defactinib 0.025 | rucaparib -0.006 | [2] -0.164 | encorafenib 0.04 | [3] 0.045

SEC24A (UniProt O95486)
inactive: saracatinib 0.002 | sotrastaurin -0.055 | Tubastatin A 0.03 | [1] 0.032 | defactinib -0.013 | rucaparib 0.002 | [2] -0.033 | encorafenib 0.091 | [3] -0.009

SCAMP2 (UniProt O15127)
inactive: saracatinib 0.084 | sotrastaurin 0.096 | Tubastatin A 0.019 | [1] 0.027 | defactinib -0.086 | rucaparib -0.321 | [2] 0.028 | encorafenib 0.349 | [3] 0.101

SASH1 (UniProt O94885)
inactive: saracatinib -0.081 | sotrastaurin -0.043 | Tubastatin A 0.04 | [1] -0.019 | defactinib -0.064 | rucaparib 0.03 | [2] -0.015 | encorafenib 0.013 | [3] -0.022

SDCBP isoform 2 (UniProt O00560)
active: [2] -0.756
inactive: saracatinib -0.175 | sotrastaurin 0.042 | Tubastatin A -0.301 | [1] 0.115 | rucaparib -0.036 | encorafenib 0.032

RRP9 (UniProt O43818)
inactive: saracatinib 0.08 | sotrastaurin 0.044 | Tubastatin A 0 | [1] -0.069 | defactinib -0.075 | rucaparib 0.019 | [2] -0.094 | encorafenib -0.005 | [3] 0.042

SACM1L (UniProt Q9NTJ5)
inactive: saracatinib 0.004 | sotrastaurin 0.003 | Tubastatin A -0.026 | [1] 0.042 | defactinib -0.08 | rucaparib -0.062 | [2] 0.007 | encorafenib 0.034 | [3] -0.046

RUFY1 (UniProt Q96T51)
inactive: saracatinib -0.037 | sotrastaurin -0.174 | Tubastatin A -0.012 | [1] 0.045 | defactinib -0.071 | rucaparib 0.032 | [2] -0.09 | encorafenib 0.077 | [3] -0.02

SEC23A (UniProt Q15436)
inactive: saracatinib 0.133 | sotrastaurin 0.008 | Tubastatin A -0.008 | [1] -0.019 | defactinib -0.078 | [2] 0.037 | encorafenib -0.171 | [3] -0.035
active: rucaparib 0.296

SCCPDH (UniProt Q8NBX0)
inactive: saracatinib -0.063 | sotrastaurin 0.1 | Tubastatin A -0.078 | [1] 0.206 | defactinib 0.121 | rucaparib -0.081 | [2] 0.183 | encorafenib -0.041 | [3] 0.002

SDHAF4 (UniProt Q5VUM1)
inactive: saracatinib 0.139 | sotrastaurin 0.072 | Tubastatin A 0.086 | [1] -0.037 | rucaparib -0.067 | [2] -0.032 | encorafenib -0.01

SCAF8 isoform 2 (UniProt Q9UPN6)
inactive: saracatinib -0.078 | sotrastaurin -0.09 | Tubastatin A 0.006 | [1] -0.085 | defactinib -0.083 | rucaparib 0.004 | [2] 0.016 | encorafenib 0.018 | [3] -0.06

RSPRY1 (UniProt Q96DX4)
inactive: saracatinib -0.073 | sotrastaurin -0.01 | Tubastatin A 0.009 | [1] -0.037 | defactinib 0.013 | rucaparib 0.118 | [2] 0.126 | encorafenib 0.04 | [3] 0.009

RSF1 (UniProt Q96T23)
active: defactinib -0.407
inactive: saracatinib 0 | sotrastaurin -0.209 | Tubastatin A 0.181 | [1] 0.035 | rucaparib 0.026 | [2] 0.048 | encorafenib 0.029 | [3] -0.086

SDAD1 (UniProt Q9NVU7)
inactive: saracatinib -0.042 | sotrastaurin 0.038 | alvocidib 0.069 | rucaparib 0.107 | [2] 0.004 | encorafenib 0.116

SEC16A isoform 5 (UniProt O15027)
inactive: saracatinib -0.08 | sotrastaurin -0.049 | Tubastatin A 0.052 | [1] -0.085 | defactinib -0.016 | rucaparib 0.22 | [2] 0.09 | encorafenib 0.119 | [3] -0.018

SCO2 (UniProt O43819)
inactive: saracatinib 0.034 | sotrastaurin 0.087 | Tubastatin A 0.016 | [1] -0.042 | defactinib 0.017 | rucaparib 0.087 | [2] -0.004 | encorafenib 0.003 | [3] -0.124

SEC23IP (UniProt Q9Y6Y8)
inactive: saracatinib -0.097 | sotrastaurin -0.048 | Tubastatin A 0.043 | [1] -0.092 | defactinib -0.156 | rucaparib -0.019 | [2] -0.045 | encorafenib 0.058 | [3] 0.025

SCNM1 (UniProt Q9BWG6)
inactive: saracatinib -0.001 | sotrastaurin 0 | Tubastatin A 0.191 | [1] -0.026 | rucaparib -0.016 | [2] 0.017 | encorafenib 0.001

2 entries drawn at random from those above, as already listed:
SEC16A isoform 5 (UniProt O15027)
inactive: saracatinib -0.08 | sotrastaurin -0.049 | Tubastatin A 0.052 | [1] -0.085 | defactinib -0.016 | rucaparib 0.22 | [2] 0.09 | encorafenib 0.119 | [3] -0.018

SCNM1 (UniProt Q9BWG6)
inactive: saracatinib -0.001 | sotrastaurin 0 | Tubastatin A 0.191 | [1] -0.026 | rucaparib -0.016 | [2] 0.017 | encorafenib 0.001

More records follow:

RRS1 (UniProt Q15050)
inactive: saracatinib -0.079 | sotrastaurin -0.001 | Tubastatin A 0.071 | [1] 0.009 | defactinib 0.688 | rucaparib 0.488 | [2] 0.109 | encorafenib 0.166 | [3] 0.047

SDCCAG8 (UniProt Q86SQ7)
inactive: saracatinib 0.067 | sotrastaurin -0.197 | Tubastatin A 0.037 | [1] 0.209 | defactinib -0.12 | rucaparib 0.172 | [2] -0.121 | encorafenib 0.028 | [3] 0

SDCBP (UniProt O00560)
active: [2] -0.541
inactive: saracatinib -0.012 | sotrastaurin 0.021 | Tubastatin A 0.025 | [1] 0.007 | defactinib 0.042 | rucaparib 0.117 | encorafenib 0.06 | [3] -0.001

SAYSD1 (UniProt Q9NPB0)
inactive: sotrastaurin 0.116 | alvocidib 0.065 | [1] -0.069 | rucaparib -0.093 | encorafenib -0.157
